# Measured values published in the supplement of paper PMC7666118.
# Chains of the proteins cited; added tags and fusions are not shown. Lines headed by an entry give the natural chain unless they say otherwise; changes in a name come on top.
# UniProt P61956, whole entry: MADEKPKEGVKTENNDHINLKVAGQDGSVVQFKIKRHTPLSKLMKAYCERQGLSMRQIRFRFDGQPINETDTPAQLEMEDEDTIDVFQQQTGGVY
# UniProt Q9Y3F4: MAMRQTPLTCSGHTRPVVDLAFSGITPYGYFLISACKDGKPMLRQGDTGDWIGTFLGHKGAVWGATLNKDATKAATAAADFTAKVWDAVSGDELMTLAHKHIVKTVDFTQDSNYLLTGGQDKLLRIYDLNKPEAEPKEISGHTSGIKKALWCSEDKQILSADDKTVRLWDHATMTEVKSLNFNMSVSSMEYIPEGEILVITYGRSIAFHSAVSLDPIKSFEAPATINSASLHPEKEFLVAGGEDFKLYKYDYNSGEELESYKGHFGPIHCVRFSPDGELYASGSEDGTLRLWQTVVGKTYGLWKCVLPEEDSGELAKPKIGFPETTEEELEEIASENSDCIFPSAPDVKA
# UniProt Q8WU79: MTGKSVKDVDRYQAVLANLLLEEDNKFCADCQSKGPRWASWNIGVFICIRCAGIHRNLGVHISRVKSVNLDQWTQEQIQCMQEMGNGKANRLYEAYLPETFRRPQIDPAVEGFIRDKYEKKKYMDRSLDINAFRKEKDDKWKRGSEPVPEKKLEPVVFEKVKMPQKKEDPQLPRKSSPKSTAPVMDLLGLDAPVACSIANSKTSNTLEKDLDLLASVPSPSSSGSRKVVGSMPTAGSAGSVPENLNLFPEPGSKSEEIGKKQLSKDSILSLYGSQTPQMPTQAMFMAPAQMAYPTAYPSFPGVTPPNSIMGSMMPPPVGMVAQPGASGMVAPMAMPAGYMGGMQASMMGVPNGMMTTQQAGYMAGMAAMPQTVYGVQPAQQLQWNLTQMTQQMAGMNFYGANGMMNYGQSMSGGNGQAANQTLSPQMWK
# UniProt O75528: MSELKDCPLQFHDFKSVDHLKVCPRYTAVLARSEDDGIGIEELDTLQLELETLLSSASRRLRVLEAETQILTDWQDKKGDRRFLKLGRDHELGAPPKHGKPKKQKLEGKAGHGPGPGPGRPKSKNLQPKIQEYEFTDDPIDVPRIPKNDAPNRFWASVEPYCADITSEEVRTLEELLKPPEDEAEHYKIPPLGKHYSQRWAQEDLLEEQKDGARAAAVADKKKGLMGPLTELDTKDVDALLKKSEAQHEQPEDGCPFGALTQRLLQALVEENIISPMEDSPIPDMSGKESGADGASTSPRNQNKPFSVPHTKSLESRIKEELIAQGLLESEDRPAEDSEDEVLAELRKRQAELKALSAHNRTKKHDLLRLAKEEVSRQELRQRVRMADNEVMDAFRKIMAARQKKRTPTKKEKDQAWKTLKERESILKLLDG
# UniProt Q9NZC9: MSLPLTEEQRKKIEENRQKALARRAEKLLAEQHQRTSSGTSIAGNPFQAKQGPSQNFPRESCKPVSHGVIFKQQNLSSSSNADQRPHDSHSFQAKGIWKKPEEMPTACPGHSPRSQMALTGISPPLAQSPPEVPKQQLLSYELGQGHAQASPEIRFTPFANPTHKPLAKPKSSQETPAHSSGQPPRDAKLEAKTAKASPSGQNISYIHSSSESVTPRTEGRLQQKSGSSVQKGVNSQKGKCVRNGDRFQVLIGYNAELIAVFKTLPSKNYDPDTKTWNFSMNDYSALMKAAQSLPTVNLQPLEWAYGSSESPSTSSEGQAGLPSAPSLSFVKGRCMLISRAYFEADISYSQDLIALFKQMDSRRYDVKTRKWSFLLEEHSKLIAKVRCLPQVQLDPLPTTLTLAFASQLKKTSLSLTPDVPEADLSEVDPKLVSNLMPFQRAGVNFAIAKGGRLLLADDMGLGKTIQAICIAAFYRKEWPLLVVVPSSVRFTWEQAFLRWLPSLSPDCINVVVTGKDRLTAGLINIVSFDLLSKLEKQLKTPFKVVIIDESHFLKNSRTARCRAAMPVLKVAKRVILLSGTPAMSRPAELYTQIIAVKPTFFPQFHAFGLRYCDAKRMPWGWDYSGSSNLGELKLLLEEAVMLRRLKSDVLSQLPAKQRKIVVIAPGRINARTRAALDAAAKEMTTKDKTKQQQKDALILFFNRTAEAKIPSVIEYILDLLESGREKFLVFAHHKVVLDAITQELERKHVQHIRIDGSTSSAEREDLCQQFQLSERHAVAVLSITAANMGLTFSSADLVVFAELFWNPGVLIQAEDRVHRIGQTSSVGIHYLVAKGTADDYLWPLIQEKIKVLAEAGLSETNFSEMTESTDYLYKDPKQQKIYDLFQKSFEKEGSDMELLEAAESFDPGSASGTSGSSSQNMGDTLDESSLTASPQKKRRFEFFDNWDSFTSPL
# UniProt Q9Y6E0: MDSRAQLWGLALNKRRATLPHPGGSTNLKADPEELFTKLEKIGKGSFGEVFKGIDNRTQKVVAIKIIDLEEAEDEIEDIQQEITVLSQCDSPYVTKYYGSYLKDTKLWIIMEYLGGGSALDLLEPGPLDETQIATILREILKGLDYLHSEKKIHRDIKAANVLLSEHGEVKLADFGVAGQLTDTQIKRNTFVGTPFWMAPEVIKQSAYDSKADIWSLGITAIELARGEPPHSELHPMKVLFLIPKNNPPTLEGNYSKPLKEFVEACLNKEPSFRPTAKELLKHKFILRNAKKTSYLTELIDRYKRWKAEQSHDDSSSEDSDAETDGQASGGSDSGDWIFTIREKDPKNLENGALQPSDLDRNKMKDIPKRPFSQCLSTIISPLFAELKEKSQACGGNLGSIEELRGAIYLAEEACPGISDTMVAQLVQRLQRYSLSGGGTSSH
# UniProt Q96T58, whole entry: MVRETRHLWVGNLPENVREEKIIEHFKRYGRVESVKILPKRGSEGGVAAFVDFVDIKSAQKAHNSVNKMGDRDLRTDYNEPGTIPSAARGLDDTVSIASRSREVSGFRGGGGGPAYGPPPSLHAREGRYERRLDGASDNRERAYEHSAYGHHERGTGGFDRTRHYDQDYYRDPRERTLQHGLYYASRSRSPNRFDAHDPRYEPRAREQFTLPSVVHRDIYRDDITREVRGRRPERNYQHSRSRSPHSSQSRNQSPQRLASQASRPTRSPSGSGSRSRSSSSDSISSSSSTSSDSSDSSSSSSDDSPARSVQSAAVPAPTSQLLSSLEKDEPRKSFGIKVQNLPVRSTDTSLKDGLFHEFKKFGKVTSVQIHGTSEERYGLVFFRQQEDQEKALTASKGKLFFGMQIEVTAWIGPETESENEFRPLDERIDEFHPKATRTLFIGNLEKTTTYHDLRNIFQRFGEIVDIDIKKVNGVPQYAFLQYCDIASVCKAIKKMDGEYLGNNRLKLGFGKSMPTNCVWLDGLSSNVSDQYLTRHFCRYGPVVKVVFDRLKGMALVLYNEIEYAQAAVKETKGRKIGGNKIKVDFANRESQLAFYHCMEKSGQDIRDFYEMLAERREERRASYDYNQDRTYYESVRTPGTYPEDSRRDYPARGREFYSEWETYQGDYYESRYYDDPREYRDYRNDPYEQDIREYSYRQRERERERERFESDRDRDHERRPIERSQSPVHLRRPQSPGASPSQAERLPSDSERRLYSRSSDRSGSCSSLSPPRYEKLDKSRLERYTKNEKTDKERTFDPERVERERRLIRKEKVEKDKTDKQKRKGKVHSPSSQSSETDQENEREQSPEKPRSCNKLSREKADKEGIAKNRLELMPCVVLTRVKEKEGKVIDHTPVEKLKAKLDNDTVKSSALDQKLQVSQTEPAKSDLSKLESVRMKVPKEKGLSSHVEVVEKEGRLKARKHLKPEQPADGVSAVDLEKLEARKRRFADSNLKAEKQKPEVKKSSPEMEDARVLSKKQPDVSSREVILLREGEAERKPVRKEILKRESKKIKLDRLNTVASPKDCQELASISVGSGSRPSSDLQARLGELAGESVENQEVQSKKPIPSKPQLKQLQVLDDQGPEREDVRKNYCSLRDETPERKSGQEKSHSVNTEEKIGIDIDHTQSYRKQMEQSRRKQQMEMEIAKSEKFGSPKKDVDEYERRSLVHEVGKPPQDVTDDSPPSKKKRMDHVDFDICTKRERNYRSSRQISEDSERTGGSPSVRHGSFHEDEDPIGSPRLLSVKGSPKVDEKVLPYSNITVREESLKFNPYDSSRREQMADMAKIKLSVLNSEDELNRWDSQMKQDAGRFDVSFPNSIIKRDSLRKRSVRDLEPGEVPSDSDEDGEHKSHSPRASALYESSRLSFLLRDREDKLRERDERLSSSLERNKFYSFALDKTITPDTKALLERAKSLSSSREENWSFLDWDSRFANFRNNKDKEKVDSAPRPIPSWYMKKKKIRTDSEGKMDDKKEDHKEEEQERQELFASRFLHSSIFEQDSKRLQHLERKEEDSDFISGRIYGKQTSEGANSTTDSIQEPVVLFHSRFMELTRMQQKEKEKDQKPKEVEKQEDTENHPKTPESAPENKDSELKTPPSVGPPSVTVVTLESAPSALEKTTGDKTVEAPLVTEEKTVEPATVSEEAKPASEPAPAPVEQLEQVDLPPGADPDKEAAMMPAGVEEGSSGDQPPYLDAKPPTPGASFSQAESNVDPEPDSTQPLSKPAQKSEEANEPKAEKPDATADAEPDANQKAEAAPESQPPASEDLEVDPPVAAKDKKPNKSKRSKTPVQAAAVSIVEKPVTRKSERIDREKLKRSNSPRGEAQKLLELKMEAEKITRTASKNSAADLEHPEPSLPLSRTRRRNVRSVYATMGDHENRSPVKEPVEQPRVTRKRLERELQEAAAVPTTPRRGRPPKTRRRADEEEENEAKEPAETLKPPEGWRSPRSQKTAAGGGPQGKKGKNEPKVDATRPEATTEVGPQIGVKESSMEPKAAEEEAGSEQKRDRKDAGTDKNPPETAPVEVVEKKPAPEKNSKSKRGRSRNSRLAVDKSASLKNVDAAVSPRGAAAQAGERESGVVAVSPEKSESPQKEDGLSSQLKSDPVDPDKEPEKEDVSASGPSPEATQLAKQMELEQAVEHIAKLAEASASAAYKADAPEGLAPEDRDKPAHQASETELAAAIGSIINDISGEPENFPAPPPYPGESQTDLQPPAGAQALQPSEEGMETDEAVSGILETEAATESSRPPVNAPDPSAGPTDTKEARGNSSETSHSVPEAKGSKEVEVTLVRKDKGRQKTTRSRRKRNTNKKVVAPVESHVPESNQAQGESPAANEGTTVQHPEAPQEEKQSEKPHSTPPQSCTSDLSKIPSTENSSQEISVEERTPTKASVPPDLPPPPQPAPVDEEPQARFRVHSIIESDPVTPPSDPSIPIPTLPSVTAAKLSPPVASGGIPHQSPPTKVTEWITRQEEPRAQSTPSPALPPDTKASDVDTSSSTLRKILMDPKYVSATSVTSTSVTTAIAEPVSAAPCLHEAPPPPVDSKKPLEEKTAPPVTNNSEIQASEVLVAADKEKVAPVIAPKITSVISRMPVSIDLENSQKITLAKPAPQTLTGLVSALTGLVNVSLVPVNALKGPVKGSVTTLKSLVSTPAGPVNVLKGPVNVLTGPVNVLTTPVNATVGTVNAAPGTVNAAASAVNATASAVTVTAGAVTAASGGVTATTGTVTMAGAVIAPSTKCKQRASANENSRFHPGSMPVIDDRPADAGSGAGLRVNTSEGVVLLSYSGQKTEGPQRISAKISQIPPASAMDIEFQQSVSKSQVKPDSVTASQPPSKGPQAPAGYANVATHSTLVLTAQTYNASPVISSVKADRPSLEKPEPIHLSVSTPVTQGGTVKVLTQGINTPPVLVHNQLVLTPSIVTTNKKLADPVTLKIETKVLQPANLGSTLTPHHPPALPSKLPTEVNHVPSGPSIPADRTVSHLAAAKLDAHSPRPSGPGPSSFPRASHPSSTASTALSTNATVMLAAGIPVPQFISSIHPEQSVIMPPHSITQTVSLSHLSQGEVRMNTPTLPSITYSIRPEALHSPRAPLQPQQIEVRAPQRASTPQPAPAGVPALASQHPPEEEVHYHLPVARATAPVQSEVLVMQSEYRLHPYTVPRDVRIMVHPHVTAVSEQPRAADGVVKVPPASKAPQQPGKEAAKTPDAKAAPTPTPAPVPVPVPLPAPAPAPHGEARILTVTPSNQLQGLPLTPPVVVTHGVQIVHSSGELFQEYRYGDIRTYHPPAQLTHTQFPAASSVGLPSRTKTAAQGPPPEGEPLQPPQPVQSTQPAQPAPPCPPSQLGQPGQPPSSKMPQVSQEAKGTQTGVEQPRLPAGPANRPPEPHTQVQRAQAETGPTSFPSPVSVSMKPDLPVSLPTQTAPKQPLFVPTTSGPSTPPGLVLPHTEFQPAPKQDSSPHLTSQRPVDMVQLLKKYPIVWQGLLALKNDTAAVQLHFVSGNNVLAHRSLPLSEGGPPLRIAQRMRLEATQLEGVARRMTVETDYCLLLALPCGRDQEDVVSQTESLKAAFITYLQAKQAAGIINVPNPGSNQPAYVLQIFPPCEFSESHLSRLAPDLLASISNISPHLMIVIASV
# The list shows a part of the results.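 How the source made its calls: active = dose-dependent thermal stabilisation significant by F-test of dose-response against flat model at 10% FDR; inactive = not significant.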
# Compound: Nc1nc2c(ncn2[C@@H]2O[C@H](COP(=O)(O)OP(=O)(O)OP(=O)(O)O)[C@@H](O)[C@H]2O)c(=O)[nH]1
# Experiment: dose-dependent thermal stabilisation call (2D-TPP, DLPTP, 10% FDR) (binary (1 = stabilised)); higher = stabilised by the compound
# Settings: system: Jurkat gel-filtered lysate; concentration range 1-500 µM
row,Target,dose-dependent thermal stabilisation call
1,SLAIN2 (UniProt Q9P270),inactive: 0
2,SIAE (UniProt Q9HAT2),inactive: 0
3,SNX5 (UniProt Q9Y5X3),inactive: 0
4,SUMO2 (UniProt P61956),inactive: 0
5,SKIV2L2 (UniProt P42285),inactive: 0
6,SPATA5L1 (UniProt Q9BVQ7),active: 1
7,SHPK (UniProt Q9UHJ6),active: 1
8,STAM (UniProt Q92783),inactive: 0
9,SRP72 (UniProt O76094),active: 1
10,SNX6 (UniProt Q9UNH7),inactive: 0
11,SHMT1 (UniProt P34896),inactive: 0
12,SP3 (UniProt Q02447),inactive: 0
13,SMYD5 (UniProt Q6GMV2),inactive: 0
14,SNRPB (UniProt P14678),inactive: 0
15,SYAP1 (UniProt Q96A49),inactive: 0
16,TAF15 (UniProt Q92804),inactive: 0
17,SNTB2 (UniProt Q13425),inactive: 0
18,STRAP (UniProt Q9Y3F4),inactive: 0

# Some of the entries so far, tab-delimited:
row	Target	dose-dependent thermal stabilisation call
12	SP3 (UniProt Q02447)	inactive: 0
13	SMYD5 (UniProt Q6GMV2)	inactive: 0

# Further results follow.

row,Target,dose-dependent thermal stabilisation call
1,SMC1A (UniProt Q14683),inactive: 0
2,SMAP2 (UniProt Q8WU79),inactive: 0
3,SIRT5 (UniProt Q9NXA8),inactive: 0
4,SSB (UniProt P05455),inactive: 0
5,TADA3 (UniProt O75528),inactive: 0
6,SHC1 (UniProt P29353),inactive: 0
7,SP140L (UniProt Q9H930),inactive: 0
8,SMARCAL1 (UniProt Q9NZC9),inactive: 0
9,SYNJ1 (UniProt O43426),inactive: 0
10,STK3 (UniProt Q13188),inactive: 0
11,SNTB1 (UniProt Q13884),inactive: 0
12,STK24 (UniProt Q9Y6E0),inactive: 0
13,STAMBP (UniProt O95630),inactive: 0
14,SPEN (UniProt Q96T58),inactive: 0
15,SPTBN2 (UniProt O15020),inactive: 0
16,SKA3 (UniProt Q8IX90),inactive: 0
17,SRCAP (UniProt Q6ZRS2),inactive: 0
18,SRSF6 (UniProt Q13247),active: 1
